Reference: paper PMC13572447
No constants are given. Whether binding was seen depends on the method and setting. Binding seen in cells or lysates may run through a third protein. Here binding means that the protein was enriched with, or labelled near, the bait; the list need not be complete. No binding means not detected with the bait. Where a sequence is shown, tags or fusion partners need not be part of it.

Target: T1, HA-SDE2UBL-PA activity-based probe (human) (UniProt Q6IQ49)
T1 sequence (chain, C-terminal propargylamide, Gly77 replaced with a propargyl electrophilic warhead): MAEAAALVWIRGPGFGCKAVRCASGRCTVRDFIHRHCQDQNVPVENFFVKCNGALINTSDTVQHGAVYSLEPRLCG
Experiment: affinity purification with mass spectrometry; HEK293 lysate with 1 µM HA-SDE2UBL-PA, anti-HA immunoprecipitation, trypsin digestion, DIA proteomics against a no-probe control, triplicate; only the target purified

B1: endogenous USP13 of HEK293 cell lysate (enzyme, UniProt Q92995 1-863)
chain: MQRRGALFGMPGGSGGRKMAAGDIGELLVPHMPTIRVPRSGDRVYKNECAFSYDSPNSEGGLYVCMNTFLAFGREHVERHFRKTGQSVYMHLKRHVREKVRGASGGALPKRRNSKIFLDLDTDDDLNSDDYEYEDEAKLVIFPDHYEIALPNIEELPALVTIACDAVLSSKSPYRKQDPDTWENELPVSKYANNLTQLDNGVRIPPSGWKCARCDLRENLWLNLTDGSVLCGKWFFDSSGGNGHALEHYRDMGYPLAVKLGTITPDGADVYSFQEEEPVLDPHLAKHLAHFGIDMLHMHGTENGLQDNDIKLRVSEWEVIQESGTKLKPMYGPGYTGLKNLGNSCYLSSVMQAIFSIPEFQRAYVGNLPRIFDYSPLDPTQDFNTQMTKLGHGLLSGQYSKPPVKSELIEQVMKEEHKPQQNGISPRMFKAFVSKSHPEFSSNRQQDAQEFFLHLVNLVERNRIGSENPSDVFRFLVEERIQCCQTRKVRYTERVDYLMQLPVAMEAATNKDELIAYELTRREAEANRRPLPELVRAKIPFSACLQAFSEPENVDDFWSSALQAKSAGVKTSRFASFPEYLVVQIKKFTFGLDWVPKKFDVSIDMPDLLDINHLRARGLQPGEEELPDISPPIVIPDDSKDRLMNQLIDPSDIDESSVMQLAEMGFPLEACRKAVYFTGNMGAEVAFNWIIVHMEEPDFAEPLTMPGYGGAASAGASVFGASGLDNQPPEEIVAIITSMGFQRNQAIQALRATNNNLERALDWIFSHPEFEEDSDFVIEMENNANANIISEAKPEGPRVKDGSGTYELFAFISHMGTSTMSGHYICHIKKEGRWVIYNDHKVCASERPPKDLGYMYFYRRIPS
- binding: no binding (tested: probe 1 µM)
